US20120015925A1, “NOVEL BENZOTHIAZEPINE AND BENZOTHIEPINE COMPOUNDS” (ASAHI KASEI PHARMA CORPORATION, priority 2004, published 2012)

Test system: Caco-2 cells
Details: human, Caco-2, 2 h, 25 µM, pH 7.4
Method: The permeability through Caco-2 cells was measured by the same way as in Test Example 15.
It was examined whether the permeability coefficient of the combined compound was changed in the presence of the compound described in Examples or the compound in Comparative Examples.

- RATE OF INCREASE (%): 100%
SMILES: CC(C)c1c(C(=O)Nc2ccccc2)c(-c2ccccc2)c(-c2ccc(F)cc2)n1CC[C@@H](O)C[C@@H](O)CC(=O)O [ATORVASTATIN]
